Where “and” joins values, the source holds several entries; their conditions need not be identical. Identical values can stand only once. Among all 300,000 compounds or so, about 5,400 (1.8%) were called active. The shares of active, inactive and inconclusive entries below differ from those in the screen. The call rests on the fitted dose curve; tested in HEK293 cells. Potencies beside an inconclusive call are fits to weak or partial responses and may not hold up.
Test: qHTS for inhibitors of binding or entry into cells for Marburg Virus
Details: Marburg virus pseudotyped entry inhibition, cell reporter; series mostly up to 37.8 µM
Potency means the concentration at half of the fitted maximal effect.

Compound | Potency
Cc1ccc(C(=O)Nc2ccc3nccnc3c2)cc1 | inconclusive: 6.31 µM [inhibitor, full curve, poor fit]
CC1C(=O)N(Cc2cn(Cc3ccco3)nn2)CCS(=O)(=O)N1Cc1ccc(-c2ccccc2)cc1 (centres undefined) | inconclusive: 0.005 µM [activator, full curve, poor fit]
CC1(C)CC2CC(C)(CN2c2ncnc3ccc(Br)cc23)C1 (centres undefined) | active: 6.31 µM
CC1CC(C)CN(Cc2nc(N)nc(Nc3ccc4ccccc4c3)n2)C1 (centres undefined) | inconclusive: 25.1 µM [inhibitor, single point]
Cc1ccc(N(C(=O)c2ccncc2)C2C=CS(=O)(=O)C2)cc1 (centres undefined) | inconclusive: 1.46 µM [inhibitor, full curve, poor fit]
CN(C)c1ccc(S(=O)(=O)N2CCCCC2)cc1NC(=O)C1=COCCO1 | inactive
Cc1nc(C)n(CC(O)COc2ccc3cc(Br)ccc3c2)n1 (centres undefined) | inconclusive: 18.3 µM [inhibitor, single point]
CC(C)c1ccc(-c2cc(C(=O)NN3CCN(C)CC3)c3ccccc3n2)cc1 | inconclusive: 29.1 µM [inhibitor, single point]
Cc1nc2cc(C(=O)NCc3cccnc3)ccc2n1-c1ccc(F)cc1F | inconclusive: 1.12 µM [inhibitor, full curve, poor fit]
Cn1ncc(Cl)c1C(=O)NCc1ccc(Cl)cc1 | inactive
CCn1c(C)nc2cc(C(=O)NN=Cc3ccc([N+](=O)[O-])cc3)ccc21 | inactive
CN(C(=O)c1ccco1)c1nc(CC(=O)Nc2ccccc2)cs1 | active: 17.8 µM
CCN(C(=O)CSc1nnc(-c2ccncc2)n1Cc1ccccc1)C1CCS(=O)(=O)C1 (centres undefined) | inactive
Cc1cc(NC(=O)c2oc3c(c2C)-c2[nH]ncc2CC3)ccc1Br | inconclusive: 5.62 µM [inhibitor, full curve, poor fit]
Nc1nc(NCC2CCCO2)nc(Nc2ccc(F)cc2)c1[N+](=O)[O-] (centres undefined) | inactive
COc1cccc(CN(C)C(=O)c2cccc(S(=O)(=O)Nc3cccc(C)c3)c2)c1OC | inconclusive: 3.55 µM [inhibitor, single point]
COc1cccc(/C=N\NC(C)=O)c1OC/C=C/c1ccccc1 | inactive
Cc1ccc(C)c(-c2cc(C(=O)Nc3nccs3)c3ccccc3n2)c1 | inactive
O=C(NC12CC3CC(CC(C3)C1)C2)N1CCN(c2ccccc2)CC1 | inactive
CSC1=N/C(=C\c2cccnc2)C(=O)N1c1ccccc1 | inactive
COc1ccc(CC(=O)OCC(=O)NC(=O)Nc2ccccc2F)cc1 | inconclusive: 10 µM [activator, single point]
COc1cccc(N2CCN(S(=O)(=O)c3c(C)[nH]c(C)c3C(=O)N3CCCCC3)CC2)c1 | inconclusive: 14.1 µM [inhibitor, partial curve, poor fit]

Compound | Potency
CCOc1ccc(Cc2c(Cl)nc(N)nc2Cl)cc1 | inactive
CC(C)COc1ccc(-c2nnc(-c3ccco3)o2)cc1 | inconclusive: 9.2 µM [inhibitor, partial curve, poor fit]
Cc1ccc(C)c(NC(=O)CCN2CCC(C)CC2)c1 | inactive
CN1C=CC(=O)[C@@H](O)[C@@H]1c1ccccc1Br | inconclusive: 12.5 µM [activator, single point]
COc1ccccc1NC(=O)CSc1nnc(Cc2cc(=O)[nH]c(=O)[nH]2)n1-c1ccccc1 | inconclusive: 0.291 µM [activator, partial curve, poor fit]
CCN1CCN(c2ncnc3scc(-c4ccc(C)c(C)c4)c23)CC1 | inconclusive: 15.8 µM [inhibitor, single point]
CCn1cc(CN2CCCC(C(=O)Nc3cccc(-c4cc5ccccc5[nH]4)c3)C2)c(C)n1 (centres undefined) | inconclusive: 12.6 µM [inhibitor, partial curve, poor fit]
O=C(NCc1ccc(Cl)cc1)C1CCN(S(=O)(=O)c2ccc(F)cc2)CC1 | inconclusive: 0.316 µM [inhibitor, full curve, poor fit]
Cc1ccnc(NC(=O)C2CCN(S(=O)(=O)c3ccc(Cl)c(C(F)(F)F)c3)CC2)c1 | inconclusive: 1.12 µM [activator, full curve, poor fit]
CCOC(=O)c1c(NC(=O)c2cccs2)sc(C(=O)N(C)C)c1C | inactive
COc1ccc(/C=N/NC(=O)c2ccc(CN3C(=O)c4cccc5cccc3c45)cc2)cc1O | inconclusive: 32.6 µM [inhibitor, single point]
Cc1ccc(S(=O)(=O)NCC(c2ccccc2)N2CCCCC2)cc1 (centres undefined) | inconclusive: 11.2 µM [inhibitor, partial curve, poor fit]
CCC(CC)C(=O)Nc1ccc2nc(SCC(=O)N3CCOCC3)sc2c1 | inactive
Cc1c(OC(=O)N(C)C)ccc2c1O/C(=C\c1ccco1)C2=O | inconclusive: 1.12 µM [activator, partial curve, poor fit]
Cc1onc(-c2ccccc2)c1C(=O)OCC(=O)Nc1cc(S(=O)(=O)N2CCOCC2)ccc1Cl | inconclusive: 7.94 µM [inhibitor, partial curve, poor fit]
Cc1ccc(-n2ncc(C(=O)Nc3ccc(Cl)cc3)c2C2CCNCC2)cc1C | inconclusive: 10 µM [inhibitor, partial curve, poor fit]
CC1(C)Cc2cccc(OCC(=O)Nc3ccccc3N3CCOCC3)c2O1 | inconclusive: 12.6 µM [inhibitor, partial curve, poor fit]
COc1ccc(C2C(C(=O)OC3CCCCC3)=C(C)Nc3nnnn32)c(OC)c1OC (centres undefined) | inconclusive: 16.4 µM [inhibitor, single point] and inconclusive: 22.4 µM [inhibitor, partial curve, poor fit]
COc1ccc(N(CC(=O)Nc2ccc(C(N)=O)cc2)S(=O)(=O)c2ccc(C)c([N+](=O)[O-])c2)cc1 | inconclusive: 6.31 µM [inhibitor, single point]
COC(=O)c1c(NC(=O)CC2NCCNC2=O)sc2c1CCCC2 (centres undefined) | inactive
O=C1C2C3c4ccccc4C(c4ccccc43)C2C(=O)N1c1cccc2cccnc12 (centres undefined) | inconclusive: 18.3 µM [inhibitor, single point]
O=C1CC(N2CCSCC2)C(=O)N1c1ccc(F)cc1 (centres undefined) | inconclusive: 0.562 µM [activator, single point]

Compound | Potency
COc1ccc2c(CC(=O)Nc3nc(C)cs3)coc2c1 | inconclusive: 0.126 µM [activator, partial curve, poor fit]
CC(=O)Nc1sc(C)c(C)c1C(=O)OCC(=O)N(CC(C)C)C1CCS(=O)(=O)C1 (centres undefined) | inconclusive: 0.1 µM [inhibitor, full curve, poor fit]
CN1CCC(=NNC(=O)CN(c2ccc([N+](=O)[O-])cc2)S(=O)(=O)c2ccccc2)CC1 | inconclusive: 20 µM [inhibitor, partial curve, poor fit]
Nc1ccc2c(c1)CC(=O)c1ccccc1S2 | inconclusive: 22.4 µM [activator, single point]
COCCn1c(N)c(C(=O)NC[C@H]2CCCO2)c2nc3ccccc3nc21 | inconclusive: 14.1 µM [inhibitor, partial curve, poor fit]
O=C(NCc1cccnc1)c1cc(Cl)ccc1[N+](=O)[O-] | inconclusive: 29.1 µM [inhibitor, single point]
Cc1ccc(NC(=O)c2ccc(CN3CCc4ccccc4C3)cc2)cc1 | inconclusive: 11.2 µM [inhibitor, partial curve, poor fit]
CCOC(=O)c1sc(/N=C/c2ccc(O)cc2O)cc1C | inactive
CN(C(=O)c1ccccc1-c1ccccc1C(=O)O)c1ccccc1 | inactive
COc1ccccc1CN1CCCC(C(=O)N(C)Cc2ccccc2)C1 (centres undefined) | inconclusive: 35.5 µM [inhibitor, single point]
CCCn1c(N)c(C(=O)CSc2nnc(-c3cccnc3)n2-c2ccc(C)cc2C)c(=O)[nH]c1=O | inconclusive: 3.55 µM [inhibitor, full curve, poor fit]
CN1CCC(N(C)S(=O)(=O)c2ccc(NC(=O)COc3ccc(F)cc3)cc2)CC1 | inconclusive: 1.26 µM [activator, single point]
COc1ccc(OCC(=O)Nc2ccc3c(c2)nc(CN2CCCC2)n3C)cc1 | inconclusive: 8.91 µM [inhibitor, partial curve]
COc1ccc(C(=O)C2CCCN(Cc3c(O)cccc3OC)C2)cc1OC (centres undefined) | inconclusive: 12.6 µM [inhibitor, partial curve, poor fit]
COc1ccccc1Nc1ccc(NS(=O)(=O)c2ccc(C(C)=O)cc2)cc1 | inconclusive: 11.2 µM [inhibitor, partial curve, poor fit]
O=C(CCc1nc2sc3c(c2c(=O)[nH]1)CCCC3)NCC(=O)Nc1ccccc1Br | inconclusive: 7.08 µM [inhibitor, partial curve, poor fit]
CN1CCN(NC(=S)Nc2ccc(Oc3ccccc3)cc2)CC1 | inconclusive: 12.6 µM [inhibitor, single point]
O=C(Cn1nnc(-c2ccccc2)n1)NCc1ccc2c(c1)OCO2 | inconclusive: 3.16 µM [activator, single point]
CCCCCOc1ccc(OC(=O)c2ccncc2)cc1 | inconclusive: 6.51 µM [inhibitor, single point]
O=C(c1c[nH]c2ccc(S(=O)(=O)N3CCOCC3)cc2c1=O)N1CCN(c2ccccn2)CC1 | inconclusive: 0.251 µM [inhibitor, full curve, poor fit]

From PubChem BioAssay AID540276 (National Center for Advancing Translational Sciences (NCATS), 2011)
